PubChem BioAssay AID493014 (National Center for Advancing Translational Sciences (NCATS), 2011)
The other results are listed elsewhere or left out. The main result of the screen is listed elsewhere. These columns were measured beside it and carry no call. Compounds called inactive in the main read-out are mostly missing here. Potencies come from curve fits of mixed quality, noted in brackets.

Experiment: qHTS Assay to Find Inhibitors of Chronic Active B-Cell Receptor Signaling
Conditions: ABC-DLBCL IkBa-CBG/CBR reporter, luminescence ratio (green luciferase fused to IkBa over red control in TMD8 lymphoma cells), 4 h
Summary of the method: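 TMD8 human ABC-DLBCL cells with doxycycline-inducible IκBα–green luciferase fusion and unfused red luciferase, in 0.5% FBS medium; compounds up to 46 uM, 4 h at 37C. Green/red luminescence ratio, filter-overlap corrected, fitted to concentration-response curves.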

[1] = measured here: CBR red luminescence, cell number
[2] = measured here: IkBa-CBG green luminescence

| SMILES | AC50 [1] | AC50 [2] |
| --- | --- | --- |
| O=C(Nc1nccs1)C1(S(=O)(=O)c2ccc(Cl)cc2)CC1 | 3.16 µM [rising, full curve, poor fit] | – |
| O=C(CNC(=O)c1ccco1)NCC(=O)OCC(=O)c1ccc(Cl)c([N+](=O)[O-])c1 | 15.8 µM [falling, single point] | – |
| CC(=O)c1sc(NCCOc2ccc(C)cc2)nc1C | 0.501 µM [rising, full curve, poor fit] | – |
| Cc1ccc(NC(=O)c2noc3c2CCCCC3)cc1C | 0.0651 µM [rising, full curve, poor fit] | – |
| CCCOc1ccc(-c2nc(C#N)c(N3CCN(CC)CC3)o2)cc1 | 15.8 µM [rising, single point] | – |
| CNC(=S)N/N=C(\C)c1ccc(Cl)s1 | – | 9.2 µM [falling, partial curve] |
| Cn1nc(-c2ccccc2)c2cc([N+](=O)[O-])ccc21 | 11.2 µM [falling, single point] | – |
| Cc1nc2c(-c3ccc(F)cc3)cnn2c(N)c1-c1ccc(F)cc1 | 2.51 µM [rising, partial curve] | – |
| CCOc1cc(/C=N/Nc2nncc(-c3ccccc3)n2)ccc1O | 2.24 µM [falling, full curve, poor fit] | – |
| Cc1cccc2c1-c1sc(C(=O)N3CCCCC3)cc1CO2 | 15.8 µM [falling, single point] | – |
| C=CCn1c(SCC(=O)Nc2ccc(Br)cc2)nc(O)c(CC)c1=O | 15.8 µM [falling, single point] | – |
| COc1ccccc1N(CC(=O)Nc1ccc(C(F)(F)F)cc1)S(C)(=O)=O | 20 µM [falling, partial curve, poor fit] | – |
| CCN1C(=O)/C(=C/c2nc3ccccc3c(=O)[nH]2)c2ccccc21 | 32.6 µM [falling, single point] | – |
| Cc1ccc(C)c(N2CCN(S(=O)(=O)c3ccc4c(c3)NC(=O)CS4)CC2)c1 | 25.1 µM [falling, single point] | – |
| COc1ccc(Cl)cc1NC(=O)CN(C)CC(=O)Nc1ccc(Br)cc1 | 28.2 µM [falling, single point] | – |
| Cc1cccc(S(=O)(=O)CC(=O)Nc2nc(-c3ccccc3)cs2)c1 | 2.06 µM [rising, partial curve, poor fit] | – |
| CCCCn1c(C)cc2c(c1=O)C1O[C@](c3ccsc3)(Cc3cc(OC)c(OC)cc31)O2 | 1.58 µM [falling, partial curve, poor fit] | – |
| CCOCCCNC(=S)NCCCNc1nc2c(C)c(C)ccc2cc1C#N | 10 µM [falling, partial curve, poor fit] | – |
| COc1ccc(S(=O)(=O)Nc2ccc(S(=O)(=O)Nc3ccc(F)cc3)cc2)cc1C | 4.11 µM [falling, partial curve, poor fit] | – |
| CCN(C(=O)CSc1nnc(-c2ccc(F)cc2)c2ccccc12)C1CCS(=O)(=O)C1 (configuration not stated) | 25.1 µM [falling, single point] | – |

| SMILES | AC50 [1] | AC50 [2] |
| --- | --- | --- |
| NC(=S)Nc1ccc(Cl)c(Cl)c1 | 3.55 µM [rising, partial curve, poor fit] | – |
| COc1ccc(C(=O)NCc2nnc(SCC(=O)N3CCc4ccccc43)o2)cc1OC | 0.00461 µM [falling, full curve, poor fit] | – |
| Cn1c2ccccc2c2nnc(SCC(N)=O)nc21 | 35.5 µM [falling, single point] | – |
| COc1cccc(OC)c1C(=O)Nc1ccc2c(c1)Cc1ccccc1-2 | 6.31 µM [falling, single point] | – |
| COc1cccc(-c2nnc(NC(=O)c3cccs3)s2)c1 | 2.24 µM [falling, full curve, poor fit] | – |
| COc1ccc(/C=N/NC(=O)c2ccncc2)cc1CSc1nc2ccccc2s1 | 0.731 µM [rising, partial curve, poor fit] | – |
| COc1ccccc1CN1CCC(n2nccc2NC(=O)CCOc2ccccc2)CC1 | 17.8 µM [falling, single point] | – |
| CSc1ccc(CN(C)C(=O)COc2ccc(C(=O)c3ccccc3)cc2)cc1 | 12.6 µM [rising, single point] | 28.2 µM [falling, single point] |
| COCCCN1C(=O)c2[nH]nc(-c3ccccc3O)c2C1c1ccc(Cl)cc1 (configuration not stated) | 7.31 µM [falling, partial curve, poor fit] | – |
| Cc1cccn2c(=O)c3cc(S(=O)(=O)c4ccc(Br)cc4)c(=N)n(C4CCCC4)c3nc12 | 0.447 µM [rising, full curve, poor fit] | – |
| COc1ccc(/C=N/Nc2nn3cnnc3c3ccccc23)cc1 | 12.6 µM [falling, partial curve, poor fit] | – |
| Cc1ccc(Cn2ccc(NC(=O)c3cc(-c4cccs4)on3)n2)cc1 | 2.06 µM [falling, full curve] | – |
| Cc1cccc2sc(N(CCCN(C)C)C(=O)c3ccc4ncsc4c3)nc12 | 11.2 µM [falling, partial curve, poor fit] | – |
| COc1ccc(NC(=O)CSc2nc(SC)ns2)cc1 | 0.126 µM [rising, full curve, poor fit] | – |
| COc1ccc(C(NCC(=O)Nc2c(C)cccc2C)c2ccccc2)cc1 (configuration not stated) | 35.5 µM [rising, single point] | – |
| COc1cc(OC)nc(Oc2ccc(N)c(C)c2)n1 | 35.5 µM [rising, single point] | – |
| CCOC(=O)c1sc(NC(=O)c2ccc(S(=O)(=O)N(C)C)cc2)nc1C | 0.259 µM [falling, full curve, poor fit] | – |
| Cc1cccc(NC(=O)CNC(=O)COC(=O)c2ccco2)c1C | 6.51 µM [rising, single point] | – |
| CCC1CCCCN1S(=O)(=O)c1ccc(NC(=O)c2cccs2)cc1 (configuration not stated) | 10.3 µM [falling, partial curve, poor fit] | – |
| Oc1c(CN2CCN(c3ccc(F)cc3)CC2)cc(Cl)c2cccnc12 | 29.1 µM [rising, single point] | 32.6 µM [falling, partial curve, poor fit] |

Reprinted at random: two records from the list.

| SMILES | AC50 [1] | AC50 [2] |
| --- | --- | --- |
| COc1ccccc1CN1CCC(n2nccc2NC(=O)CCOc2ccccc2)CC1 | 17.8 µM [falling, single point] | – |
| CCOC(=O)c1sc(NC(=O)c2ccc(S(=O)(=O)N(C)C)cc2)nc1C | 0.259 µM [falling, full curve, poor fit] | – |
